# Test results reported in the supplement of paper PMC6411743.
# Chains of the proteins cited; added tags and fusions are not shown. Lines headed by an entry give the natural chain unless they say otherwise; changes in a name come on top.
# UniProt P98175: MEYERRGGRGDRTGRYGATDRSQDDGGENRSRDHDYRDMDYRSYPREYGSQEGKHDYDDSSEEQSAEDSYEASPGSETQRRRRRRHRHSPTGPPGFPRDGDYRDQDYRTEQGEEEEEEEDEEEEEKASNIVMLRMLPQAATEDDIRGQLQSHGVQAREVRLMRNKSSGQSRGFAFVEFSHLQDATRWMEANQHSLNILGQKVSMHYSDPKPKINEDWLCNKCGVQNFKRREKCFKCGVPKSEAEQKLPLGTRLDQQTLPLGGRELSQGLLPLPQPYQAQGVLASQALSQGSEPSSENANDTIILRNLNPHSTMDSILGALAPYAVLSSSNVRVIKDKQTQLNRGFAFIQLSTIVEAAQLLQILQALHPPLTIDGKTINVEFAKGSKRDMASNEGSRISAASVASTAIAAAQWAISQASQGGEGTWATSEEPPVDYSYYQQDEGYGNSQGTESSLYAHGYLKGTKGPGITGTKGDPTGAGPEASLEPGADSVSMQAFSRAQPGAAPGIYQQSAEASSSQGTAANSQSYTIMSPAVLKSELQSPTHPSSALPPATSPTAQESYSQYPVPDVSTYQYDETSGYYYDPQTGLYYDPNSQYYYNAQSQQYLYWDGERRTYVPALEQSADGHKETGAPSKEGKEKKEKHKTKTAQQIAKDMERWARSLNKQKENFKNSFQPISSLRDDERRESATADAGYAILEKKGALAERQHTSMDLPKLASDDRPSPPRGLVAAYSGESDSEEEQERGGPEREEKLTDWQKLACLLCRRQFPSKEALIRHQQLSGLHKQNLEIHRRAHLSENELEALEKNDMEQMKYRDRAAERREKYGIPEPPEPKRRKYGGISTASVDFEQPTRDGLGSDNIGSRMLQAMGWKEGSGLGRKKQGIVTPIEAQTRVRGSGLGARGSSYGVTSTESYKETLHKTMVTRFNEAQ
# UniProt Q99798: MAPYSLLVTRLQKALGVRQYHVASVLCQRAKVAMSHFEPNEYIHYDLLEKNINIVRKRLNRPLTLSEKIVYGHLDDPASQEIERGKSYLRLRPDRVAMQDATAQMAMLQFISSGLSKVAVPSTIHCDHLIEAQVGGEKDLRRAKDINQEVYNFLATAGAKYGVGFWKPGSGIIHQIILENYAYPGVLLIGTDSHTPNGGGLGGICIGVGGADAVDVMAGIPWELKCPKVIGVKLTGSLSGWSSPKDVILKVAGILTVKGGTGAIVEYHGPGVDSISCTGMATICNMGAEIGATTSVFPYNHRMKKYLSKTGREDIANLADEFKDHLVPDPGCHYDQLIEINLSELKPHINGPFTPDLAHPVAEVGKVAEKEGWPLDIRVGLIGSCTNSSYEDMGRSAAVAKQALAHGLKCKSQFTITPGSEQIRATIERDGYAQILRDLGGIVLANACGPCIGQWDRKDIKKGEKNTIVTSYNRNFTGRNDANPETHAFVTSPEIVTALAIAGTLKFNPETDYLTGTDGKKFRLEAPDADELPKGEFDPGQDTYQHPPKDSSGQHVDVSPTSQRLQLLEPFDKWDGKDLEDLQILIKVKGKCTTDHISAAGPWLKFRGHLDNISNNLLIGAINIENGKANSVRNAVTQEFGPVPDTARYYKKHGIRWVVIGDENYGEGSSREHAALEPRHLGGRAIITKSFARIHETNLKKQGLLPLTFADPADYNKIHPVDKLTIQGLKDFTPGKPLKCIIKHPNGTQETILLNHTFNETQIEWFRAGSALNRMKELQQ
# UniProt A0JNW5: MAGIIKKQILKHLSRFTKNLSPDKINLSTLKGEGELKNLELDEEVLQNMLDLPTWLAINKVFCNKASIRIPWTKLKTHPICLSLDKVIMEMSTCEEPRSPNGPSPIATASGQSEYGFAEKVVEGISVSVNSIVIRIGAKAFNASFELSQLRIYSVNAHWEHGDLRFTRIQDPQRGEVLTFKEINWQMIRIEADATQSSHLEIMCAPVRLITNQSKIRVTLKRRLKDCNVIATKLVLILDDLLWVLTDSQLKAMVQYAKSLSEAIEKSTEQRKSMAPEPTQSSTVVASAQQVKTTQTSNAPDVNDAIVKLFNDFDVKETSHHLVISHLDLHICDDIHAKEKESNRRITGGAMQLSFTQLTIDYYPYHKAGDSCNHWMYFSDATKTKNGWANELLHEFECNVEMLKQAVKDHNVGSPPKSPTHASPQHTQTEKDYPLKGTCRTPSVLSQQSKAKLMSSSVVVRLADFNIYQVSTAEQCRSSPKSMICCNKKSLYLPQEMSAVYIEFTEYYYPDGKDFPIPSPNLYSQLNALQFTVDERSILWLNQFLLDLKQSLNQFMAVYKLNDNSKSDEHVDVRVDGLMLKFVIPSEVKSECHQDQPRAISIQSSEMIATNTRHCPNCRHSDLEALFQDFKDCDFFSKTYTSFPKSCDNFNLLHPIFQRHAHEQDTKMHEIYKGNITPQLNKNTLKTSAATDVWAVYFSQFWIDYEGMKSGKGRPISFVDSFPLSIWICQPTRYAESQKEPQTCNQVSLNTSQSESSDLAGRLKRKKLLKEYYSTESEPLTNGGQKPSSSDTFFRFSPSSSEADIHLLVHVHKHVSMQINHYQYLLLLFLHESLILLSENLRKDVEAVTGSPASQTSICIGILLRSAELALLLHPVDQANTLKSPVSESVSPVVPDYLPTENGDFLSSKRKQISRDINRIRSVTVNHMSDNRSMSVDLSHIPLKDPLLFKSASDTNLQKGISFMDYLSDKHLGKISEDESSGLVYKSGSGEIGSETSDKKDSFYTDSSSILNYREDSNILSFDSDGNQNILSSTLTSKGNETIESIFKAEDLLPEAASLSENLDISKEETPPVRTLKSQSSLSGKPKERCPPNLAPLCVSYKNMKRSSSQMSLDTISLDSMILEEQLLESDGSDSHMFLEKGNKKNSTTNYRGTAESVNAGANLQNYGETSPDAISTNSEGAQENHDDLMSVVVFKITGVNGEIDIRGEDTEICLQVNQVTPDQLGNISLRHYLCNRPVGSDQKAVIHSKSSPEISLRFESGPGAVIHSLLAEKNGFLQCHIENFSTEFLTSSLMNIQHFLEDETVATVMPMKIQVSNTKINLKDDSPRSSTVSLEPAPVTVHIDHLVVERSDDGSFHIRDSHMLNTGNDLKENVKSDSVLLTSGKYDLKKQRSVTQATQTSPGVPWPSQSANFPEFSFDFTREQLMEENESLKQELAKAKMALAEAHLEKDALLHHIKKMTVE
# UniProt O95139, whole entry: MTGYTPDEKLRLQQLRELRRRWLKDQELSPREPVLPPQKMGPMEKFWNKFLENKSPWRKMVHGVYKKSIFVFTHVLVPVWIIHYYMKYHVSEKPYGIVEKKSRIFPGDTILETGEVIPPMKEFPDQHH
# ± gives the standard deviation of the averaged measurements. The list shows a part of the results.
# Compound: Nc1nc2c(ncn2[C@@H]2O[C@H](COP(=O)(O)OP(=O)(O)OP(=O)(O)O)[C@@H](O)[C@H]2O)c(=O)[nH]1 [guanosine triphosphate]
# Experiment: NP40-soluble protein abundance relative to vehicle (solubility fold change) (ratio); higher = more soluble protein in presence of GTP
# Protocol: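 Solubility proteome profiling in Jurkat crude lysate. Lysate was treated with Mg-GTP (0.1-10 mM) for 10 min at room temperature and 3 min at 37 °C, then solubilised with 0.8% NP40 and benzonase, followed by ultracentrifugation. Proteins were quantified by TMT10 LC-MS/MS; the value is the NP40-soluble abundance relative to the NP40-processed vehicle, from 3 independent experiments.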
Target,NP40-soluble protein abundance (concentration: 0.1mM),NP40-soluble protein abundance (concentration: 0.5mM),NP40-soluble protein abundance (concentration: 1mM),NP40-soluble protein abundance (concentration: 2mM),NP40-soluble protein abundance (concentration: 4mM),NP40-soluble protein abundance (concentration: 6mM),NP40-soluble protein abundance (concentration: 8mM),NP40-soluble protein abundance (concentration: 10mM)
A0A0A0MR66|P98175 and related entries (UniProt P98175),0.994 ± 0.035,1.03 ± 0.028,1.06 ± 0.013,1.08 ± 0.041,1.15 ± 0.042,1.21 ± 0.049,1.28 ± 0.098,1.28 ± 0.12
A2A274 and related entries (UniProt Q99798),0.988 ± 0.037,0.995 ± 0.037,0.948 ± 0.053,0.932 ± 0.066,0.916 ± 0.063,0.906 ± 0.061,0.903 ± 0.061,0.869 ± 0.082
A0A0C4DGH6|A0JNW5 (UniProt A0JNW5),1.02 ± 0.076,0.988 ± 0.094,1.08 ± 0.17,1.02 ± 0.12,0.929 ± 0.11,0.888 ± 0.12,0.946 ± 0.1,0.924 ± 0.18
A0A087WZX2|O95139 (UniProt O95139),0.936 ± 0.098,0.882 ± 0.1,1.06 ± 0.05,1.08 ± 0.029,1.03 ± 0.05,1.06 ± 0.037,0.972 ± 0.084,1.1 ± 0.1
A0A0A0MTR7|Q63HN8 and related entries (UniProt Q63HN8),1.11 ± 0.064,1.15 ± 0.11,1.07 ± 0.079,1.16 ± 0.15,1.19 ± 0.12,1.17 ± 0.13,1.15 ± 0.087,1.11 ± 0.099
